Positions count from the first letter of the chain named. These are yes or no findings as the source states them, for the method shown. Binding can be weak; no strength is given.
B1: F(ab')2 complex #13 (protein)
VH: GAELVRSGASVKMSCKASGYSFTDYNMYWVKQTPGQGLEWIGYIYPGNGGTNYNQKFKGKATLTADTSSSTAYMQISSLTSEDSAVYFCARDYDDGGYAMDYWGQGTTVTVSS
VL: DIQMTQSPASLSASVGETVTITCRASGNIHNYLTWYQQKQGKSPQLLVYNAKTLADGVPSRFSGSGSGTQYSLKINRLQPEDFGSYYCQHFWNIPWTFGGGTKLNSR
B2: F(ab')2 complex #46 (protein)
VH: B1 VH
VL: B1 VL
B3: humanized antibody complex #46 (antibody, human IgG1, V domains shown)
VH: B1 VH
VL: B1 VL
B4: humanized antibody complex #47 (antibody, human IgG1, V domains shown)
VH: DAELVKPGASVKISCKASGYTFTDHSIHWVQQKPEQGLEWIGYISPGNGNIKYNEKFKGKATLTADKSSSTAYMQLNSLTSEDSAVYFCKRSLGRGGPYYFDYWGQGTTVTVSS
VL: DIVLTQAAPSLPVTPGESVSISCRSSKSLLHSNGNTYLYWFLQRPGQSPQLLIYRMSNLASGVPDRFSGSGSGTAFTLRISRVEAEDVGVYYCMQHREYPVTFGSGPN
B5: Fab complex #63 (Fab, V domains shown)
VH: GPDLVKPGASVKISCKASGYSFTAYYMHWVKQSHGKSLEWIGRVNPNNGGTTYNQKFKGKAILTVDKSSSTAYMELRSLTFEDSAVYYCARRIYYGYFDYWGQGTTVTVSS
VL: AFFAVSLGQRATISCKASQSVDYDGDSYMNWYQQKPGQPPKLLIYVASNLESGVPARFSGSGSGTDFTLNIHPVEEEDAATYYCQQSNEDPYTFGGGTKLEIKQ
B6: humanized antibody complex #63 (antibody, human IgG1, V domains shown)
VH: B5 VH
VL: B5 VL
B7: humanized antibody complex #42 (antibody, human IgG1, V domains shown)
VH: AVTLDESGGGLQTPGGALSLVCKASGFTFSGYDMLWVRQAPGKGLEWVAGIGSTGGGTDYGAAVKGRATISRDNGQSTVRLQLNNLRAEDTATYYCAKVAGGCNSGYCRDSPGSIDAWGHGTEVIVS
VL: AVTQQPASVSANPGETVKITCSGGGSRNYYGWYQQKSPGSVPVTVIYYDDQRPSNIPSRFSGALSGSTSTLTITGVQADDEAVYFCGSADSNTYEGSFGAGTTLTVL
B8: F(ab')2 complex #9 (protein)
VH: B7 VH
VL: B7 VL
B9: F(ab')2 complex #42 (protein)
VH: B7 VH
VL: B7 VL
B10: Fab complex #69 (Fab, V domains shown)
VH: EVQLVESGGGLVQPGGSLRLSCAASGFSLSSHSLGWVRQAPGKGLEWIGDIRSGGSAYYANWAKGRFTISRDNSKNTLYLQMNSLRAEDTAVYYCTRTNGPSDLTNRLDLWGQGTLVTVSS
VL: QVLTQSPSSLSASVGDRVTINCQASQSLYNNENLAWFQQKPGKVPKRLIYGASTLASGVSSRFSGSGSGTEFTLTISSLQCEDFAIYYCLGEFSCGSADCFAFGGGTKVEIK
B11: Fab complex #71 (Fab, V domains shown)
VH: B10 VH
VL: EQVLTQSPSSLSASVGDRVTINCQASQSLYNNENLAWFQQKPGKVPKRLIYGASTLASGVSSRFSGSGSGTEFTLTISNLQPEDFAIYYCLGEFSCGSADCFAFGGGTKVEIK
B12: Fab complex #74 (Fab, V domains shown)
VH: B10 VH with Y94F
VL: B11 VL
B13: humanized antibody complex #41 (antibody, human IgG1, V domains shown)
VH: B10 VH with Y94F
VL: B11 VL
B14: Fab complex #72 (Fab, V domains shown)
VH: B10 VH with Y94F
VL: B11 VL with Q2I, I87T
B15: humanized antibody complex #72 (antibody, human IgG1, V domains shown)
VH: B10 VH with Y94F
VL: B11 VL with Q2I, I87T
B16: F(ab')2 complex #70 (protein)
VH: B10 VH with Y94F
VL: B10 VL
B17: humanized antibody complex #70 (antibody, human IgG1, V domains shown)
VH: B10 VH with Y94F
VL: B10 VL
B18: F(ab')2 complex #36 (protein)
VH: B10 VH
VL: B10 VL
B19: Fab complex #73 (Fab, V domains shown)
VH: B10 VH
VL: B11 VL with Q2I, I87T
B20: F(ab')2 complex #37 (protein)
VH: B10 VH with Y94F
VL: B10 VL
B21: F(ab')2 complex #73 (protein)
VH: B10 VH
VL: B11 VL with Q2I, I87T
B22: F(ab')2 complex #69 (protein)
VH: B10 VH
VL: B10 VL
B23: F(ab')2 complex #72 (protein)
VH: B10 VH with Y94F
VL: B11 VL with Q2I, I87T
B24: humanized antibody complex #71 (antibody, human IgG1, V domains shown)
VH: B10 VH
VL: B11 VL
B25: F(ab')2 complex #71 (protein)
VH: B10 VH
VL: B11 VL
B26: F(ab')2 complex #39 (protein)
VH: B10 VH with Y94F
VL: B11 VL with Q2I, I87T
B27: F(ab')2 complex #41 (protein)
VH: B10 VH with Y94F
VL: B11 VL
B28: F(ab')2 complex #38 (protein)
VH: B10 VH
VL: B11 VL
B29: F(ab')2 complex #74 (protein)
VH: B10 VH with Y94F
VL: B11 VL
B30: humanized antibody complex #69 (antibody, human IgG1, V domains shown)
VH: B10 VH
VL: B10 VL
B31: Fab complex #70 (Fab, V domains shown)
VH: B10 VH with Y94F
VL: B10 VL
B32: F(ab')2 complex #40 (protein)
VH: B10 VH
VL: B11 VL with Q2I, I87T

What follows are binders tested against CAPRIN-1 protein (assay: ELISA).

Row | binding | Binder
1 | binds | B1
2 | binds | B2
3 | binds | B3
4 | binds | B4
5 | binds | B5
6 | binds | B6
7 | binds | B7
8 | binds | B8
9 | binds | B9
10 | binds | B10
11 | binds | B11
12 | binds | B12
13 | binds | B13
14 | binds | B14
15 | binds | B15
16 | binds | B16

Row | binding | Binder
17 | binds | B17
18 | binds | B18
19 | binds | B19
20 | binds | B20
21 | binds | B21
22 | binds | B22
23 | binds | B23
24 | binds | B24
25 | binds | B25
26 | binds | B26
27 | binds | B27
28 | binds | B28
29 | binds | B29
30 | binds | B30
31 | binds | B31
32 | binds | B32

— patent EP4778539A1
